Results are given in words; binding and its absence hold for the method and conditions named. Some binding calls cover weakened binding; strength is not graded here.
Molecular target: T1, SPARC-M, the MMP-generated fragment of SPARC with the N-terminus … (human) (UniProt P09486)
T1 sequence (looked up): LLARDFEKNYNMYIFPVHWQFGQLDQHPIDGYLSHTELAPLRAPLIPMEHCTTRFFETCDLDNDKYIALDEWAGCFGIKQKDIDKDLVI
Test: competitive SPARC-M ELISA on MMP digests of recombinant human SPARC

B1: SPARC-M monoclonal antibody (antibody, mouse IgG1, kappa, V domains shown)
VH: EVKLVESGGGLVKPGGSLKLSCAASGFTFSRNAMSWVRQTPEKRLEWVASISTSDNTYYPDSVKGRFTISKDNARNILYLQMSSLRSEDTAMYYCASGFDVGAYWGQGTLVTVSA
VL: DVLMTQTPLSLPVSLGDQASISCRSSQSIVHSNGNTYLEWYLQKPGQSPKLLIYKVSNRFSGVPDRFSGSGSGTDFTLKISRVDTEDLGVYYCFQGSHVPLTFGAGTKLELKR
notes: also called the antibody; the selected antibody
With B1 the binding was “binds”.

— patent US20230152323A1 (NORDIC BIOSCIENCE A S, published 2023)
